{
  "source": "patent US20210085703A1",
  "about": "“Compositions and Methods for Preventing or Treating Nephrolithiasis” (SP Nutraceuticals, Inc., priority 2017, published 2021)",
  "assay": "Crystallization of oxalate crystals in the presence and absence of arbutin (confocal birefringence, AFM)",
  "assay_type": "physicochemical",
  "conditions": "crystals formed in the presence of 1 mM arbutin",
  "data": [
    {"compound": "OCC1OC(Oc2ccc(O)cc2)C(O)C(O)C1O", "note": "[arbutin, hydroquinone β-D-glucopyranoside]", "values": [
      {"measurement": "crystal surface by confocal birefringence microscopy", "value": "crystal surface aberrations"},
      {"measurement": "crystal size by AFM volumetric analysis", "setting": "versus non-treated crystals", "value": "significantly smaller than non-treated crystals"},
      {"measurement": "roughness index of crystal surface by AFM", "setting": "versus untreated crystal", "value": "higher than in the untreated crystal"}
    ]}
  ]
}
